Experimental data: PubChem BioAssay AID2685 (National Center for Advancing Translational Sciences (NCATS), 2010)
The whole screen tested about 320,000 compounds, of which about 2,100 (0.66%) were called active. The shares of active, inactive and inconclusive entries below differ from those in the screen. Calls come from the whole dose curve; as a rule, active = well fitted inhibition curve with a large enough effect in the signal ratio, with a control signal flat (not every such curve was filed as active); inconclusive = small, poorly fitted or top-dose-only effect, or effect the other way, or a change in a side signal; inactive = flat fitted curve, though single readings scatter; the % refers to the signal ratio. Potencies of inconclusive entries are doubtful fits and often do not repeat.
% is set by controls: 0 for no effect and ±100 for the full control effect; potency is the fitted concentration of half-maximal effect.

Test: qHTS Assay for Lipid Storage Modulators in Drosophila S3 Cells
Details: BODIPY lipid droplet fluorescence, 18-24 h, cells fed with added oleic acid; lipid storage change, negative = inhibition: at 46.1 µM (top of the series) unless noted
Summary of the method: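 Drosophila S3 cells got compounds at several concentrations plus oleic acid (400 uM solution). Laser-scanning cytometry with 488 nm excitation read lipid droplets at 500-530 nm and cells at 575-640 nm. Percent activity was relative to 20 uM Triacsin C.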
With `COC(=O)/C(C#N)=C(/Nc1ccc(F)c(Cl)c1)C(F)(F)F` the Potency was inconclusive: 6.51 µM [activator, single point].
With `COc1cc(NC(=O)c2cc(OC)c(OC)c(OC)c2)ccc1NC(=O)c1cccs1` the Potency was inconclusive: 29.1 µM [falling, single point].
With `Cc1[nH]nc2c1C(c1ccc(F)cc1)C(C#N)=C(N)O2` (centres undefined) the lipid storage change, negative = inhibition was inconclusive: 18.8%.
In the case of `CCN(CC)S(=O)(=O)c1ccc(/C=C/C(=O)OCC(=O)Nc2cccc3ccccc23)cc1`, the “lipid storage change, negative = inhibition” value was inactive: 7.73%.
With `COc1ccc(-n2c(-c3ccc(Br)cc3)n[nH]c2=S)cc1` the lipid storage change, negative = inhibition was inconclusive: -30%.
With `Cc1ccccc1C(=O)N(CC(=O)Nc1sc(C)c(C)c1C(N)=O)C1CCCC1` the lipid storage change, negative = inhibition was inconclusive: 21.5%.
In the case of `Cc1ccc2c(C)c(C(=O)N3CCCCC3CO)oc2c1C` (centres undefined), the lipid storage change, negative = inhibition was inconclusive: -0.23%.
With `CC(=O)Nc1ccc(C(=O)CSc2nnc(C)o2)cc1` the lipid storage change, negative = inhibition was inconclusive: -1.28%.
In the case of `CC1CCN(S(=O)(=O)c2csc(C(=O)Nc3ccccc3)c2)CC1`, the Potency was inconclusive: 6.51 µM [falling, single point].
In the case of `COc1ccc([C@H]2CC(=O)C=C(c3cccc(C(C)C)c3)C2)cc1`, the Potency was inconclusive: 29.1 µM [falling, single point].
With `CCCc1cc(=O)[nH]c(Nc2cc(OC)ccc2OC)n1` the lipid storage change, negative = inhibition was inconclusive: 28.8%.
With `COc1cccc(NC(=O)C(=O)c2cn(CC(=O)N3CCCC3)c3ccccc23)c1` the Potency was inconclusive: 6.51 µM [activator, single point].
With `CCc1cc(C)cc(OCCNC(=O)c2ncn[nH]2)c1` the lipid storage change, negative = inhibition was inconclusive: 51.1%.
In the case of `CCCCn1c(N)c(N(CCOC)C(=O)c2ccc(N3C(=O)CCC3=O)cc2)c(=O)[nH]c1=O`, the lipid storage change, negative = inhibition was inconclusive: -17.8%.
In the case of `CC(=O)Oc1ccc(-c2ccc(C(=O)O)cc2)cc1`, the lipid storage change, negative = inhibition was inconclusive: 5.47%.
With `COCCN(CCOC)S(=O)(=O)c1ccc(C(=O)Nc2nc(-c3ccncc3)cs2)cc1` the lipid storage change, negative = inhibition was inconclusive: 422%.
For `COc1cc(OC)c(C2C(C#N)=C(C)NC(C)=C2C#N)c(C(=O)O)c1`, the lipid storage change, negative = inhibition was inconclusive: -28.8%.
In the case of `CC1=NNC(=O)C1CCC(=O)N/N=C(\C)c1ccc(Cl)cc1` (centres undefined), the lipid storage change, negative = inhibition was inconclusive: 8.33%.
For `O=C(NCCOc1ccccc1F)c1ccccc1SCc1ccc(F)cc1`, the lipid storage change, negative = inhibition was inconclusive: 20.7%.
For `COc1ccc(N(CC(=O)NCc2ccc(C)cc2)S(=O)(=O)c2c(C)nn(C)c2C)cc1`, the lipid storage change, negative = inhibition was inconclusive: 22.7%.
In the case of `CCC(=O)N1c2ccccc2NC2=C(C(=O)CC(C)(C)C2)C1c1cccnc1` (centres undefined), the lipid storage change, negative = inhibition was inconclusive: 3.15%.
With `Cc1cccc(C(=O)OCC(=O)NCC2CCCO2)c1O` (centres undefined) the Potency was inconclusive: 20.6 µM [activator, single point].
For `CCn1cc(Br)c(C(=O)NCc2ccco2)n1`, the lipid storage change, negative = inhibition was inconclusive: 10.4%.
In the case of `c1ccc(CSc2nnc3ccc(-c4ccco4)nn23)nc1`, the Potency was inconclusive: 2.31 µM [falling, partial curve].
For `COc1ccc(-c2cc(C(F)(F)F)nc(NCc3ccco3)n2)cc1OC`, the lipid storage change, negative = inhibition was inconclusive: 4.95%.
In the case of `CN(C(=O)c1cccc(Nc2ccc(-c3ccc4c(c3)OCCO4)nn2)c1)C1CCCCC1`, the lipid storage change, negative = inhibition was inconclusive: -24.4%.
With `COc1ccc(Br)cc1CNC(=O)CCC(=O)N1CCSc2ccccc21` the lipid storage change, negative = inhibition was inconclusive: -3.76%.
In the case of `CCOc1cc(/C=N/NC(=O)c2ccncc2)ccc1OC(=O)c1ccco1`, the Potency was inconclusive: 20.6 µM [falling, single point].
With `O=C(NCCCN1CCOCC1)c1cc(-c2ccc(Br)cc2)nc2ccccc12` the lipid storage change, negative = inhibition was inconclusive: 22.5%.
With `O=C(CN1C(=O)CCS(=O)(=O)c2ccccc21)Nc1cccc(F)c1` the Potency was active: 23.1 µM.
With `CSc1ccc(S(=O)(=O)Nc2ccccc2C(=O)N2CCOCC2)cc1` the Potency was inconclusive: 11.6 µM [falling, partial curve, poor fit].
For `Cc1nc(C)c(-c2nnc(-c3cccc(S(=O)(=O)N(C)C)c3)o2)cc1C(=O)NN`, the lipid storage change, negative = inhibition was inconclusive: -7.37%.
For `O=C1c2ccc([N+](=O)[O-])cc2C(=O)N1c1c[nH]c(=O)[nH]c1=O`, the lipid storage change, negative = inhibition was inconclusive: -17.4% [at 9.22 µM].
For `CN(C)CCOC(=O)C12CC3CC(CC(C3)C1)C2`, the lipid storage change, negative = inhibition was inconclusive: -18.1%.
In the case of `COc1nc(NCCN2CCOCC2)nc(Nc2ccccc2)n1`, the “outcome” value was “inactive [at 46.1 µM]”.
For `O=C(CCS(=O)(=O)c1cccc2nonc12)N1CCOCC1`, the Potency was inconclusive: 23.1 µM [falling, partial curve, poor fit].
For `CCOc1ccc(S(=O)(=O)N2CCC(C(=O)NCc3ccco3)CC2)cc1C`, the lipid storage change, negative = inhibition was inconclusive: -27.4%.
With `Cc1ccc(NC(=O)COc2ccc(CCO)cc2-n2nc3ccccc3n2)cc1C` the Potency was inconclusive: 29.1 µM [cytotoxic, single point].
With `CC(C)(C)c1nnc(NS(=O)(=O)c2cc(Cl)ccc2Cl)s1` the Potency was inconclusive: 0.116 µM [activator, full curve].
With `COc1cc(C)c(S(=O)(=O)NC2CC(C)(C)NC(C)(C)C2)cc1C` the lipid storage change, negative = inhibition was inconclusive: -40%.
In the case of `O=c1[nH]c2ccccc2n2c(=S)[nH]nc12`, the Potency was inconclusive: 0.517 µM [falling, single point].
With `CCc1noc(C)c1C(=O)OCC(=O)Nc1nc(-c2ccc(F)c(F)c2)cs1` the Potency was inconclusive: 6.51 µM [activator, single point].
In the case of `O=C1CNC(=O)/C(=C\c2ccccc2)N1`, the lipid storage change, negative = inhibition was inconclusive: 8.96%.
For `CC(=O)c1c(N2CCCCC2)nc(=S)n(-c2ccccc2)c1C`, the lipid storage change, negative = inhibition was inconclusive: -14.7%.
For `CCC(C)N(C(=O)COC(=O)CSc1ccc(C)c(C)c1)C1CCS(=O)(=O)C1` (centres undefined), the lipid storage change, negative = inhibition was inconclusive: 8.41%.
With `COc1ccc(CN2CCCCC2C)cc1C` (centres undefined) the “lipid storage change, negative = inhibition” value was inactive: -3.51%.
For `O=c1ccc(/C=C/c2ccccc2)nn1Cc1ccc(F)cc1`, the lipid storage change, negative = inhibition was inconclusive: 25.7%.
For `Cc1ccc(NC(=O)CN2C(=O)C(=O)N(C3CCCC3)C2=O)cc1Cl`, the lipid storage change, negative = inhibition was inconclusive: 11.1%.
For `NN(Cc1ccccc1)C(=S)Nc1ccc(Cl)c(Cl)c1`, the lipid storage change, negative = inhibition was inconclusive: -55.7%.
With `COc1ccc(NS(=O)(=O)c2ccc(C(=O)N(C)Cc3cccs3)cc2)cc1` the lipid storage change, negative = inhibition was “inconclusive”.
For `COc1ccc(CN2C(=O)c3cccnc3C2=O)cc1S(=O)(=O)N1CCOc2ccccc21`, the lipid storage change, negative = inhibition was inconclusive: -10.8%.
In the case of `O=C1CCCN1CN(C(=O)c1ccc2c(c1)OCO2)c1cccc(Cl)c1`, the lipid storage change, negative = inhibition was inconclusive: -0.749%.
For `COc1ccc(/C=C/C(=O)c2cc(Cl)ccc2O)c(OC)c1`, the lipid storage change, negative = inhibition was inconclusive: 13.3%.
With `COc1ccc2cc(C(=O)N3CCCC(Nc4ccc(F)cc4)C3)n(C)c2c1` (centres undefined) the lipid storage change, negative = inhibition was inconclusive: 19.8%.
For `Cn1c(=O)c2sccc2n2c(CCCC(=O)Nc3ccccc3)nnc12`, the lipid storage change, negative = inhibition was inconclusive: 19.1%.
For `COc1ccc(N2CCN(S(=O)(=O)CCNC(=O)/C=C/c3ccccc3)CC2)cc1`, the lipid storage change, negative = inhibition was inconclusive: 3.82%.
With `COc1ccc(CN(Cc2ccc(C(=O)O)cc2)C(=S)Nc2ccc(C)cc2)cc1OC` the lipid storage change, negative = inhibition was inconclusive: 6.05%.
With `O=C(CCCCCn1c(=S)[nH]c2ccc(N3CCOCC3)cc2c1=O)NCc1ccc(Cl)cc1` the lipid storage change, negative = inhibition was inconclusive: -18.4%.
With `C=CCn1cc(C(=O)OC)c(=O)c2cc(S(=O)(=O)N3CCCCCC3)ccc21` the lipid storage change, negative = inhibition was inconclusive: 5.15%.
In the case of `Cc1ccc(C)c(NS(=O)(=O)c2cc(C(=O)NCC3CCCO3)ccc2C)c1` (centres undefined), the lipid storage change, negative = inhibition was inconclusive: -14.9%.
In the case of `CCOC(=O)c1cc2c(=O)n3ccccc3nc2n(CCOC)c1=NC(=O)C(C)(C)C`, the lipid storage change, negative = inhibition was inconclusive: 74.2%.
For `COc1cc(CN2CCN(C3CCC3)CC2CCO)cc(OC)c1` (centres undefined), the lipid storage change, negative = inhibition was inconclusive: 12.3%.
For `Cc1ccc(C(=O)N/C(=C\c2ccccc2F)c2nc(=S)[nH][nH]2)cc1`, the lipid storage change, negative = inhibition was inconclusive: 19.2%.
For `CSCCC(Nc1ccc(S(=O)(=O)N2CCOCC2)cc1[N+](=O)[O-])C(=O)OCC(=O)NCC(C)C` (centres undefined), the lipid storage change, negative = inhibition was inconclusive: -42.9%.
In the case of `COc1cccc(NC(=O)N2CCOCC2)c1`, the lipid storage change, negative = inhibition was inconclusive: 4.78%.
With `O=C(Nc1cccc2ccccc12)c1ccc(Cn2cc(Cl)cn2)cc1` the lipid storage change, negative = inhibition was inconclusive: -24.3%.
In the case of `COc1ccc(CCNC(=O)Cc2cc(OCc3ccccc3)c(OC)cc2[N+](=O)[O-])cc1OC`, the Potency was inconclusive: 11.6 µM [cytotoxic, partial curve].
In the case of `COc1ccc(C2=CC(c3cc(OC)c(OC)c(OC)c3)NC(=S)N2)cc1` (centres undefined), the Potency was inconclusive: 0.411 µM [activator, full curve, poor fit].
In the case of `CCC(C)(C)NC(=O)c1cc(S(=O)(=O)N2CCCCC2)ccc1N1CCOCC1`, the lipid storage change, negative = inhibition was inconclusive: 28.3%.
In the case of `CCCCn1c(N)c(N(CCOC)C(=O)C2CC(=O)N(c3cccc(SC)c3)C2)c(=O)[nH]c1=O` (centres undefined), the lipid storage change, negative = inhibition was “inconclusive”.
In the case of `O=C(NC1CCN(C(=O)Nc2cccc(Cl)c2)CC1)c1ccco1`, the Potency was inconclusive: 29.1 µM [activator, single point].
In the case of `CNC(=O)CSc1nnc(-c2cccnc2)n1-c1ccc(C)cc1`, the lipid storage change, negative = inhibition was inconclusive: -17.1%.
For `Cc1oc(-c2ccccc2Cl)nc1CS(=O)CC(=O)NCc1ccco1` (centres undefined), the lipid storage change, negative = inhibition was inconclusive: 35.7%.
For `c1ccc2sc(Nc3nc4cc5c(cc4s3)OCO5)nc2c1`, the Potency was inconclusive: 0.0731 µM [activator, single point].
With `COc1cc(/C=N/N2CCN(Cc3ccc(Cl)cc3)CC2)ccc1OC(C)=O` the lipid storage change, negative = inhibition was inconclusive: 61.6%.
In the case of `c1ccc(NCn2cncn2)nc1`, the lipid storage change, negative = inhibition was inconclusive: -55.7%.
With `CCOC(=O)c1c(CC(C)C)csc1NC(C)=O` the lipid storage change, negative = inhibition was inconclusive: 8.74%.
For `CCS(=O)(=O)N1Cc2ccccc2CC1C(=O)Nc1ccc(NC(C)=O)cc1` (centres undefined), the “outcome” value was “inactive [at 46.1 µM]”.
For `CC(C)Nc1nc(NC(N)=S)nc(NC(C)(C)C)n1`, the Potency was inconclusive: 0.092 µM [falling, full curve, poor fit].
